Reference: article doi:10.1101/2021.06.28.450115
Results are given in words; binding and its absence hold for the method and conditions named. In cells and extracts the contact can be indirect.

Biological target: Flag-tagged TP53 (exogenous wild-type p53, HEK293T) (UniProt P04637)
Assay: co-IP

binding: no binding
B1: exogenous DAB2IP (HEK293T) (protein, UniProt Q5VWQ8 1-1189)
chain: MSAGGSARKSTGRSSYYYRLLRRPRLQRQRSRSRSRTRPARESPQERPGSRRSLPGSLSEKSPSMEPSAATPFRVTGFLSRRLKGSIKRTKSQPKLDRNHSFRHILPGFRSAAAAAADNERSHLMPRLKESRSHESLLSPSSAVEALDLSMEEEVVIKPVHSSILGQDYCFEVTTSSGSKCFSCRSAAERDKWMENLRRAVHPNKDNSRRVEHILKLWVIEAKDLPAKKKYLCELCLDDVLYARTTGKLKTDNVFWGEHFEFHNLPPLRTVTVHLYRETDKKKKKERNSYLGLVSLPAASVAGRQFVEKWYPVVTPNPKGGKGPGPMIRIKARYQTITILPMEMYKEFAEHITNHYLGLCAALEPILSAKTKEEMASALVHILQSTGKVKDFLTDLMMSEVDRCGDNEHLIFRENTLATKAIEEYLKLVGQKYLQDALGEFIKALYESDENCEVDPSKCSAADLPEHQGNLKMCCELAFCKIINSYCVFPRELKEVFASWRQECSSRGRPDISERLISASLFLRFLCPAIMSPSLFNLLQEYPDDRTARTLTLIAKVTQNLANFAKFGSKEEYMSFMNQFLEHEWTNMQRFLLEISNPETLSNTAGFEGYIDLGRELSSLHSLLWEAVSQLEQSIVSKLGPLPRILRDVHTALSTPGSGQLPGTNDLASTPGSGSSSISAGLQKMVIENDLSGLIDFTRLPSPTPENKDLFFVTRSSGVQPSPARSSSYSEANEPDLQMANGGKSLSMVDLQDARTLDGEAGSPAGPDVLPTDGQAAAAQLVAGWPARATPVNLAGLATVRRAGQTPTTPGTSEGAPGRPQLLAPLSFQNPVYQMAAGLPLSPRGLGDSGSEGHSSLSSHSNSEELAAAAKLGSFSTAAEELARRPGELARRQMSLTEKGGQPTVPRQNSAGPQRRIDQPPPPPPPPPPAPRGRTPPNLLSTLQYPRPSSGTLASASPDWVGPSTRLRQQSSSSKGDSPELKPRAVHKQGPSPVSPNALDRTAAWLLTMNAQLLEDEGLGPDPPHRDRLRSKDELSQAEKDLAVLQDKLRISTKKLEEYETLFKCQEETTQKLVLEYQARLEEGEERLRRQQEDKDIQMKGIISRLMSVEEELKKDHAEMQAAVDSKQKIIDAQEKRIASLDAANARLMSALTQLKERYSMQARNGISPTNPTKLQITENGEFRNSSNC
